Consider 40 compounds from PubChem BioAssay AID2685 (National Center for Advancing Translational Sciences (NCATS), 2010).

This assay can be described thus: qHTS Assay for Lipid Storage Modulators in Drosophila S3 Cells.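 As to cell number change: cells counted by Cell Tracker Red CMTPX staining in the red channel.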 Particulars: BODIPY lipid droplet fluorescence, 18-24 h; for cell number change: measured here: cell count max response, cells fed with added oleic acid. Summed up: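 Drosophila S3 cells got compounds at several concentrations plus oleic acid (400 uM solution). Laser-scanning cytometry with 488 nm excitation read lipid droplets at 500-530 nm and cells at 575-640 nm. Percent activity was relative to 20 uM Triacsin C.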
(In general: Quantitative high-throughput screening tests each substance at several concentrations.)

Setting [1] is: measured here: lipid fluorescence (Fed channel) AC50, cells fed with added oleic acid.
The mark [2] stands for this setting: measured here: cell number channel AC50, cells fed with added oleic acid.

This is one part of the list. The main result of the screen is listed elsewhere. These columns were measured beside it and carry no call. Compounds called inactive in the main read-out are mostly missing here. The note in brackets gives the kind of curve behind each potency; many fits are weak.

By AC50 is commonly meant the midpoint of the concentration-response curve, whichever way the signal moves. Read a high AC50 as weaker potency.

`CC(C)(C)c1ccc2c(c1)N(CC(=O)O)C(=O)CO2`: under setting [1], the AC50 was 29.1 µM [falling, single point].

With `COc1cccc(NC(=O)NC2(C(=O)N3CCC(O)CC3)CCCCC2)c1`, the cell number change worked out at 11.3%. For the same compound, the AC50 under setting [1] is 29.1 µM [rising, partial curve, poor fit].

In the case of `COc1ccccc1NC(=O)CSc1nc(=O)n(Cc2ccncc2)c2c1CCCC2`, the cell number change worked out at 37.7%. For the same compound, the AC50 under setting [2] was 3.26 µM [rising, full curve, poor fit]. For the same compound, the AC50 under setting [1] was 8.2 µM [rising, partial curve, poor fit].

With `Cc1cccc(C)c1NC(=O)Cn1c(=O)c2cccn2c2ccccc21`, the cell number change came to 15.7%. In addition, the AC50 under setting [1] was 6.51 µM [rising, single point].

As to `CCn1c2ccccc2c2cc(NC(=O)C3CCN(S(=O)(=O)c4cccs4)CC3)ccc21`, the cell number change was 10.9%. Further, under setting [1], the AC50 was 4.61 µM [falling, full curve, poor fit].

With `COCCN(C(=O)CC1C(=O)NCCN1CC(c1ccccc1)c1ccccc1)C(C)C` (centres undefined), the cell number change is 37.6%. Moreover, the AC50 under setting [2] was 32.6 µM [rising, partial curve, poor fit]. The AC50 under setting [1] was 14.6 µM [rising, partial curve, poor fit].

For the compound `Cc1cc(=O)oc2cc(N3C(=O)CC(Cc4ccccc4)C3=O)ccc12` (centres undefined), the cell number change is -2.95%. In addition, under setting [1], the AC50 was 0.146 µM [falling, full curve, poor fit].

Consider `O=C(OCCC1Oc2cccnc2NC1=O)c1ccc(F)cc1` (centres undefined), for which the cell number change stood at 23.7%. Also, the AC50 under setting [1] is 12.6 µM [rising, partial curve].

As for `CCN1CCN(C(=O)C2CCN(c3nnc(C)c4c(C)n(-c5ccc(C)cc5)nc34)CC2)CC1`, the cell number change was -12.2%.

Turning to `C=CCn1nnnc1SCC(=O)Nc1ccccc1C(=O)OC`, the cell number change was -2.75%.

Turning to `O=C(Nc1ccc(-c2nc3cccnc3s2)cc1)C1CCCO1` (centres undefined), the cell number change is -13%. The AC50 under setting [1] was 2.91 µM [rising, full curve].

`O=C(C1CCCN(S(=O)(=O)c2ccccc2)C1)N1CCN(c2ccc(F)cc2)CC1` (centres undefined): the cell number change is -23.5%.

In the case of `COc1ccc(N=C2NC(=O)S/C2=C\c2ccc(N(C)C)cc2)cc1`, the cell number change is -98.6%. For the same compound, under setting [2], the AC50 was 14.6 µM [falling, partial curve].

For the compound `CCC(CC)C(=O)c1c[nH]c(C(=O)NCc2cccs2)c1`, the cell number change is -34.4%.

For `Cc1cccc(CC(=O)NCCS(=O)(=O)N2CCN(c3cccc(Cl)c3)CC2)c1`, the cell number change is -50%. Also, the AC50 under setting [2] was 0.00517 µM [falling, full curve, poor fit].

`Cc1cc(C(=S)N2CCOCC2)c(C)n1-c1ccc(Cl)cc1`: the cell number change was -18.1%. Further, the AC50 under setting [1] is 0.366 µM [falling, partial curve].

On to `COc1ccc(NC(=S)NC2CCS(=O)(=O)C2)cc1` (centres undefined), for which the cell number change came out at 23.8%. Also, under setting [1], the AC50 is 1.84 µM [falling, partial curve, poor fit].

With `COc1ccccc1C(=O)Nc1ccccc1C(=O)NC1CCCCC1`, the cell number change worked out at 17.1%.

Regarding `CCOc1ccccc1C=Nc1ccccc1C(=O)Nc1ccccc1`, the cell number change was -10.8%. Further, the AC50 under setting [1] is 0.651 µM [falling, full curve, poor fit].

As to `c1ccc(-c2cnc(CN3CCN(c4ccccc4)CC3)o2)cc1`, the cell number change came out at 17.1%.

On to `Cc1cc(C)cc(NC(=S)NC(=O)C2CC2)c1`, for which the cell number change was 18.2%.

`CC(OC(=O)c1ccc(S(=O)(=O)NCc2ccco2)cc1)C(=O)Nc1ccc(Cl)cn1` (centres undefined): the AC50 under setting [2] was 0.00461 µM [rising, full curve, poor fit].

For the compound `CC(=O)Nc1ccccc1NC(=O)c1ccccc1-c1ccccc1`, the cell number change was -3.86%.

For `CC1(C)CC(=O)C=C(NC2=CC3OC(c4ccccc4)OCC3OC2=O)C1` (centres undefined), the cell number change was -56.8%. Moreover, the AC50 under setting [2] is 23.1 µM [falling, partial curve, poor fit]. Besides, under setting [1], the AC50 is 18.4 µM [falling, single point].

Take `C/C(=N\NC(=O)C(c1ccncc1)N1CCOCC1)c1ccc(Br)cc1` (centres undefined): the cell number change amounted to 84.3%. Besides, under setting [2], the AC50 was 23.1 µM [rising, single point].

As to `CCOC(=O)c1ccc(-n2c(CN3CCC(O)CC3)nc3ccc([N+](=O)[O-])cc3c2=O)cc1`, under setting [2], the AC50 is 0.411 µM [rising, full curve, poor fit].

In the case of `COCCCNc1nc(CC(C)C)nc2c1nnn2Cc1ccccc1`, the cell number change is -4.01%. Also, under setting [1], the AC50 is 3.26 µM [rising, partial curve, poor fit].

On to `CN(C)CCCN(C(=O)c1cc(-c2cccs2)nc2ccccc12)c1nc2ccc(F)cc2s1`, for which the cell number change was -11.2%. Further, the AC50 under setting [1] was 3.66 µM [rising, partial curve].

Consider `C1CCN=C(Nc2nn[nH]n2)CC1`, for which the cell number change came out at 8.79%. The AC50 under setting [1] was 0.651 µM [falling, single point].

For the compound `CC1CCc2c(sc3nc(CN4CCOCC4)nc(Sc4ccccc4)c23)C1` (centres undefined), the cell number change was -0.297%.

For the compound `Cc1cc2c(cc1C)NC1(C(=O)Nc3ccccc31)C1=C(CC(C)(C)CC1=O)N2` (centres undefined), the AC50 runs as follows: under setting [2], 6.51 µM [falling, single point]; under setting [1], 16.4 µM [falling, partial curve, poor fit].

As for `O=C(/C=C/c1cnc2ccccc2n1)NC1CCCCCC1`, the cell number change was determined as 10.4%. For the same compound, the AC50 under setting [2] is 0.00461 µM [falling, full curve, poor fit]. Also, under setting [1], the AC50 is 1.3 µM [rising, full curve].

As to `CC1CCCN(C(c2cccs2)c2nnnn2Cc2ccccc2)C1` (centres undefined), the cell number change worked out at 134%. Further, the concentration at half-maximal activity (AC50) under setting [2] was 29.1 µM [rising, single point].

Consider `COc1cccc(N2CCN(c3ccc4nnc(CCC(=O)Nc5cc(C)ccn5)n4n3)CC2)c1`, for which the cell number change was -26.2%.

Take `COc1ccc(CCN2C(=O)CN(Cc3ccccc3)CC2=O)cc1OC`: the cell number change was -0.894%. Under setting [1], the AC50 was 16.4 µM [rising, partial curve].

Regarding `CN(CC(=O)Nc1ccccc1C(F)(F)F)C(=O)CSc1nnnn1C`, the AC50 under setting [1] was 0.259 µM [falling, partial curve].

For `CCc1cc2cc(OC)ccc2nc1SCC(=O)Nc1cc(OC)c(OC)cc1C(=O)O`, the cell number change is 8.37%.

In the case of `CCC1CN(C(=O)NCc2ccc(F)cc2)c2cc(Cl)ccc2O1` (centres undefined), the cell number change was -38.7%. Also, the concentration at half-maximal activity (AC50) under setting [1] is 29.1 µM [falling, single point].

With `Fc1ccc(Oc2nccc(-c3ccc(Cl)cc3)n2)cc1`, the cell number change is -12.6%. The AC50 under setting [1] is 29.1 µM [falling, single point].

In the case of `c1ccc2c(c1)nc(CN1CCOCC1)n1c3ccccc3nc21`, the AC50 by setting is: under setting [2], 0.164 µM [rising, full curve, poor fit]; under setting [1], 0.291 µM [rising, partial curve, poor fit].
